# Inconclusive means that the source gave no clear call. Such entries were picked first, then a sample of the others. For part of these data: Where the call is inconclusive, the potency comes from a doubtful curve fit. Calls of active or inactive are those of the source. The calls were made as follows, unless noted: active = hit-call score of the fitted dose curve at least 0.9, where 1 is the maximum; inconclusive = response in the unintended direction; inactive = score below 0.9.
# By UniProt entry, the sequences of proteins in these tests, tags left out. Where a name states a change or a piece, a line headed by the entry shows the natural chain unless it says otherwise.
# UniProt P41144: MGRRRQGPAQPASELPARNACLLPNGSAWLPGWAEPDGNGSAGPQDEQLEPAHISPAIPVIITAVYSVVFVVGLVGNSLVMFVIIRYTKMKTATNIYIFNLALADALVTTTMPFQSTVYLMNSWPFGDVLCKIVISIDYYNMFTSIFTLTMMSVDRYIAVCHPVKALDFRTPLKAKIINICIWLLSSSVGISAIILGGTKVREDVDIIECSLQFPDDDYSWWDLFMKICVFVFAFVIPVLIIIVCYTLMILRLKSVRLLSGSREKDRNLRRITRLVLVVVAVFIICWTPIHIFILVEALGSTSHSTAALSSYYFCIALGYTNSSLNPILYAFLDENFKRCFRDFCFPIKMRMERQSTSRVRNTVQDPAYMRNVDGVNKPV
# UniProt P42575: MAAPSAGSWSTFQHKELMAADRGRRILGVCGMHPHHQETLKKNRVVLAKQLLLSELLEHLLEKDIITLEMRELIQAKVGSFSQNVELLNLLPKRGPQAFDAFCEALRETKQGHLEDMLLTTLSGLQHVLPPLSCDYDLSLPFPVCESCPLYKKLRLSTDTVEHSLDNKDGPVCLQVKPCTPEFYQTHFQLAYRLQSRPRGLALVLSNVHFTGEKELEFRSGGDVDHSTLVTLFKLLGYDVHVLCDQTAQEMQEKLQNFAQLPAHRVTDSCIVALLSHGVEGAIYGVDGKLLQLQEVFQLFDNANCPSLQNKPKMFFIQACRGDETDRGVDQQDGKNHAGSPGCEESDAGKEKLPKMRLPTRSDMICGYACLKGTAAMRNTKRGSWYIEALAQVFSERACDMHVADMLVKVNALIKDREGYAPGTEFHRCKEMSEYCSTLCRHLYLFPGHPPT
# UniProt P08588, whole entry, looked up: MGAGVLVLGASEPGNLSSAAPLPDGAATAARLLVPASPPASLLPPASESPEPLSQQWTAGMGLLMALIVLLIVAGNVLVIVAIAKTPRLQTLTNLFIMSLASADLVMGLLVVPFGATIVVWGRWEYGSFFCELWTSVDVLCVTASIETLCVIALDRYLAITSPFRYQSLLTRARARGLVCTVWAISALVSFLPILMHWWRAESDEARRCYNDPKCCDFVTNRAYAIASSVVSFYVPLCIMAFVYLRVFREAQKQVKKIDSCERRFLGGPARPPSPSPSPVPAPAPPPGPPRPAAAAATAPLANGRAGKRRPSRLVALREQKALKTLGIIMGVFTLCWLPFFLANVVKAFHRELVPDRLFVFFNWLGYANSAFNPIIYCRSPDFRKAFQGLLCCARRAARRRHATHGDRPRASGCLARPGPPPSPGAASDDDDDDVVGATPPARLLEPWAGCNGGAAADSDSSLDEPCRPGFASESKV
# UniProt P37231: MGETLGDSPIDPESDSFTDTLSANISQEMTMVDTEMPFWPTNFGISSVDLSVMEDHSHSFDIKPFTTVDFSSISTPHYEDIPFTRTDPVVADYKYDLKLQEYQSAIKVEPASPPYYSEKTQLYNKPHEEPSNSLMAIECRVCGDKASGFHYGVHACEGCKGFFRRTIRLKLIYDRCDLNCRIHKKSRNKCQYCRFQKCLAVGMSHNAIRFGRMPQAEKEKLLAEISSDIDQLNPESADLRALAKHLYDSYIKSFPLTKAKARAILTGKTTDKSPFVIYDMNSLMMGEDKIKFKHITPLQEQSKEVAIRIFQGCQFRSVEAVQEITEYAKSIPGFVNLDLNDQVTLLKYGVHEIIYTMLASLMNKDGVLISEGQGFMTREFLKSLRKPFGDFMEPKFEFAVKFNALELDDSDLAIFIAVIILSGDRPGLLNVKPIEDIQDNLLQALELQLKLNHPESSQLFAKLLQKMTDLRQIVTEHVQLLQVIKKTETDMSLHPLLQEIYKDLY
# UniProt P21452, whole entry, looked up: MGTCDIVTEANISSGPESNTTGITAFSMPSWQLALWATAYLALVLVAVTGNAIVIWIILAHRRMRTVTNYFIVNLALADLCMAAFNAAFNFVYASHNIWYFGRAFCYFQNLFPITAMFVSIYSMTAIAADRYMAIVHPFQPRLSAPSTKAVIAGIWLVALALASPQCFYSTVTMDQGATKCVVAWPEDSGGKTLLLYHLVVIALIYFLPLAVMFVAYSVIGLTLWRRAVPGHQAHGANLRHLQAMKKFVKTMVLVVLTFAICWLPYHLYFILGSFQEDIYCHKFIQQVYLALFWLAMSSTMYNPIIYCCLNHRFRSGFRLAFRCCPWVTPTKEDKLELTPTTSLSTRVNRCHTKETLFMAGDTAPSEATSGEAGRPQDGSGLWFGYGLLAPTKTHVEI
# UniProt Q9NTG7: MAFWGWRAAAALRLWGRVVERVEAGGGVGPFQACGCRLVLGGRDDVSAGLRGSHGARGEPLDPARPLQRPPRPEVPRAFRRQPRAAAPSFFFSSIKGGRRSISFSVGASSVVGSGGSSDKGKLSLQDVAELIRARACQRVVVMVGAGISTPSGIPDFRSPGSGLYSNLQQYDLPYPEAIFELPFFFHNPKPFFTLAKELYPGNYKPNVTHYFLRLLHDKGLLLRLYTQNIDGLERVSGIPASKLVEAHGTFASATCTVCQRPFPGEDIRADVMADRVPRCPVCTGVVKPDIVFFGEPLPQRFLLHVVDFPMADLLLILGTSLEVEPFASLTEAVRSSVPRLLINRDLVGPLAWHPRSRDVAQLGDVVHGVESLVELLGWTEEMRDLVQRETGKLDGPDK
# UniProt Q13131: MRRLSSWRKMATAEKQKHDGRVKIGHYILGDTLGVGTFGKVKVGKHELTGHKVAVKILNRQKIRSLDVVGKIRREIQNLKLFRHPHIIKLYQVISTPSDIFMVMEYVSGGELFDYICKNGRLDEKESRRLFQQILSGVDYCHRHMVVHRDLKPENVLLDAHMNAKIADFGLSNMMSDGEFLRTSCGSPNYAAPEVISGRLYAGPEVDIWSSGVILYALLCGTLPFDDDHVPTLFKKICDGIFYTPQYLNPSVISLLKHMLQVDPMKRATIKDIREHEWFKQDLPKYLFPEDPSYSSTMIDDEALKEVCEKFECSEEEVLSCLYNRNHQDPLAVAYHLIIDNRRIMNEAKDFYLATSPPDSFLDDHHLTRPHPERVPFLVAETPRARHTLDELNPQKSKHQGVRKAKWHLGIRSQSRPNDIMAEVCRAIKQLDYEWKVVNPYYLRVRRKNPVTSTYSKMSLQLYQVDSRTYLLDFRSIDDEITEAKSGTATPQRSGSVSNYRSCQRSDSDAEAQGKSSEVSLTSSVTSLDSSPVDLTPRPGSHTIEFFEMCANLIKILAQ
# UniProt P10275: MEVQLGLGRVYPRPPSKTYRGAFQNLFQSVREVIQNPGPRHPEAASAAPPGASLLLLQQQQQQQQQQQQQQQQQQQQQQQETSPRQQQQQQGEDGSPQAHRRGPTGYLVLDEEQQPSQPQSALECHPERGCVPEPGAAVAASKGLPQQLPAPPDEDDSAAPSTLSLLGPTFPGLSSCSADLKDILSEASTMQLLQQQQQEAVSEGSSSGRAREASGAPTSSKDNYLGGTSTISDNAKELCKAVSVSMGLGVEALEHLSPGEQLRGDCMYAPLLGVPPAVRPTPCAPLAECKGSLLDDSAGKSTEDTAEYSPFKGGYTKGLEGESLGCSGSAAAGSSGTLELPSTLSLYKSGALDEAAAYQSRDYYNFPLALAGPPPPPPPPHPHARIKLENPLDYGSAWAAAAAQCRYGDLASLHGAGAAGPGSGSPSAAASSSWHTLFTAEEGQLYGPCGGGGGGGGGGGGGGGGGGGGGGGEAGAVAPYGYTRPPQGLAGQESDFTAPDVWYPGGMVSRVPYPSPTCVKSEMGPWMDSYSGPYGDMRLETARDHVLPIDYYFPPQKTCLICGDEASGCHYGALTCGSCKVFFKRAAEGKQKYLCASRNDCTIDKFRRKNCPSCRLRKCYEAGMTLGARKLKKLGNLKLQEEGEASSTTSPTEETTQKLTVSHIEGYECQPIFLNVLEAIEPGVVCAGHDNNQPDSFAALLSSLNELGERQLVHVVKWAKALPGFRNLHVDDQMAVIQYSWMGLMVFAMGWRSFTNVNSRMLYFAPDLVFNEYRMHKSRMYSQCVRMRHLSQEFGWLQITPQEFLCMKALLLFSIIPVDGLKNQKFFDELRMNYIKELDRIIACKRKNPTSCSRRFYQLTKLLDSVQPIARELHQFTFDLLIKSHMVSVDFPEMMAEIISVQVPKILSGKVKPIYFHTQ
# UniProt Q14994: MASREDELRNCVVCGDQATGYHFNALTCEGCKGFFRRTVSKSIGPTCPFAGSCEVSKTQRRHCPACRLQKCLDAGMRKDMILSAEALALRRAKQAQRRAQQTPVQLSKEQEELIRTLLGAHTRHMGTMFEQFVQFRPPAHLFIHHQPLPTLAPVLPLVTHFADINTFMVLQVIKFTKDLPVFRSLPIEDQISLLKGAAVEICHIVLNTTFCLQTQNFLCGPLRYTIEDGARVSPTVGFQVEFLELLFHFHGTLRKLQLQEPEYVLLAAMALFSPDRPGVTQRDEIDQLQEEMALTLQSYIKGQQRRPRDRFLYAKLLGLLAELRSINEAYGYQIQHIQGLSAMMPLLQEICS
# UniProt P49662: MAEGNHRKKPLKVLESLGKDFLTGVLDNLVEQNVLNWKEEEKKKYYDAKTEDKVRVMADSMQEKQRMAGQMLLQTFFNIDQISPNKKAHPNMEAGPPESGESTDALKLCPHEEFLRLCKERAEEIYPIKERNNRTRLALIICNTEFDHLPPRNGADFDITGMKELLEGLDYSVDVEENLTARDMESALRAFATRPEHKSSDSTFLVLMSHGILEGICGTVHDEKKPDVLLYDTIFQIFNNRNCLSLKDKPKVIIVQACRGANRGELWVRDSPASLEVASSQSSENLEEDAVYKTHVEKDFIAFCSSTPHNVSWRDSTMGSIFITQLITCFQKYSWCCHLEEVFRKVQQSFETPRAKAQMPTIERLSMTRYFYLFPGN
# UniProt P08254: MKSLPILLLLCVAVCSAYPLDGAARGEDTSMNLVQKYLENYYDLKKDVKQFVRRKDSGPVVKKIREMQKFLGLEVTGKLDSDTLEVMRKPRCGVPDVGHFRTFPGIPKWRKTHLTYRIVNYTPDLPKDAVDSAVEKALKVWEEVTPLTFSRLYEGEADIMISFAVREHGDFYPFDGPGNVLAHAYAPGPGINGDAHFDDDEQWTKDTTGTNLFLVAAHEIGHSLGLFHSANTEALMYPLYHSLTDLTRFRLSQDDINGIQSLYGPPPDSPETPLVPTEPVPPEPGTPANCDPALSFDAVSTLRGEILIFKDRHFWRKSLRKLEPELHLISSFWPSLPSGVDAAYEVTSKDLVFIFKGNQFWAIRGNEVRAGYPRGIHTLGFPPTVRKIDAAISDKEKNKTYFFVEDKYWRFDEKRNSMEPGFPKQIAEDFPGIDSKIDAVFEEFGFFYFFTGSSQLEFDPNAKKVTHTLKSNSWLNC
# Legend:
# [1] = tested on: rat Monoamine Oxidase, MAO-A, Central (MAOAC), gene 29253; test: NVS_ENZ_rMAOAC: NovaScreen (NVS) Enzymatic Assay for rat Monoamine Oxidase, MAO-A, Central (MAOAC) (AID 2283243);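 also: potency refers to inhibition seen as signal drop below DMSO baseline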
# In short: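 Rat brain tissue extract served as the cell-free enzyme source; activity was measured by radiometric scintillation counting 1.5 hours after compound addition. Loss of signal relative to DMSO baseline indicated inhibition; primary screen at 25 uM in duplicate.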
# [2] = tested on: guinea pig Dopamine Transporter (DAT), gene 100714898; test: NVS_TR_gDAT: NovaScreen (NVS) Transporter Assay for guinea pig Dopamine Transporter (DAT) (AID 2283369);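 also: active compounds lower bound radioligand signal relative to DMSO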
# In short: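 Scintillation counts of filter-retained radioligand report binding to guinea pig striatal membranes after 2 h. Activity scored as signal loss relative to DMSO, first at 25 uM in duplicate, then in concentration series to 50 uM.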
# [3] = ArunA_CellTiter_hNC: Viability Assessment in the ArunA Biomedical's Oris Neural Crest (hNC) Cell Migration Assay (AID 2283752)
# In short: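 Human H9-derived neural crest stem cells were plated at 60,000 per well on Matrigel in growth medium with LIF and bFGF, incubated 16 h at 37C, then exposed to chemical for 72 h. Viability was read with CellTiter Aqueous One as loss of signal versus DMSO.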
# [4] = tested on: 5-hydroxytryptamine receptor 2C (pig); test: NVS_GPCR_p5HT2C: NovaScreen (NVS) G Protein-Coupled Receptor Assay for pig Serotonin, 5-Hydroxytryptamine Receptor 2C (5HT2C) (AID 2283288)
# In short: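 Pig choroid plexus membranes; radioligand competitive binding, filter-based scintillation counting, read 1 h after dosing. Primary screen in duplicate at 25 uM; actives then run as concentration series; loss of signal versus DMSO baseline.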
# [5] = Tanguay_ZF_120hpf_MORT_legacy: (Legacy) Oregon State University Tanguay Lab 120 Hour Post-fertilization zebrafish Assay for Mortality (AID 2283633);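 also: fitted as increase in binary mortality versus DMSO negative control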
# In short: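 5D WT zebrafish, chorion removed 4 hpf; 1 embryo/well from 6 hpf; static exposure to 120 hpf, 28C, dark, sealed. Final DMSO 0.64%. Readout: binary mortality, brightfield, 24 + 120 hpf; DMSO as negative control.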
# [6] = tested on: guinea pig Muscarinic, Peripheral (Mperiperal) Receptor, Non-selective Binding, gene 100379235; test: NVS_GPCR_gMPeripheral_NonSelective: NovaScreen (NVS) G Protein-Coupled Receptor Assay for guinea pig Muscarinic, Peripheral (Mperiperal) Receptor, Non-selective Binding (AID 2283250)
# In short: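 Guinea pig bladder membranes, radioligand binding read 1 h after dosing by filter scintillation counting; loss of signal vs DMSO. Primary duplicate screen at 25 uM, then concentration-response up to 50 uM.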
# [7] = biological target: guinea pig Opioid, Kappa 1 Receptor (OpiateK), OPRK1 (gene 100135587) (UniProt P41144); test: NVS_GPCR_gOpiateK: NovaScreen (NVS) G Protein-Coupled Receptor Assay for guinea pig Opioid, Kappa 1 Receptor (OpiateK) (AID 2283252);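 also: radioligand displacement from kappa opioid receptor in guinea pig cerebellar membranes; active means reduced radioligand binding relative to DMSO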
# In short: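 Signal is scintillation counts of filter-trapped radioligand bound to guinea pig cerebellar membrane receptor, measured 2 hours post-dosing. Activity is loss of binding versus DMSO, first at 25 uM in duplicate, then as concentration series for actives.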
# [8] = CCTE_Mundy_HCI_hN2_NOG_NeuriteCount: CCTE's Neurite Outgrowth Assay in human hN2 cells for Neurite Count, Mundy Lab (AID 2284219)
# In short: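 In this morphology assay, hNP1-derived neurons received test chemical 2 h post-plating and were fixed two days later in warm paraformaldehyde/sucrose containing Hoechst 33342. Neurites, labelled by rabbit anti-βIII-tubulin (1:800) and Alexa Fluor-488 (1:500), were counted automatically.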
# [9] = IUF_NPC2-5_cytotoxicity_72hr: Cytotoxicity Assessment at 72 hours in the Leibniz Research Institute for Environmental Medicine (IUF) Neural Progenitor Cell Migration and Differentiation Assay for Cytotoxicity (NPC2-5) (AID 2284306);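 also: LDH release into supernatant measured by resorufin fluorescence marking membrane damage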
# In short: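 Membrane integrity loss was scored from fluorescence (RFU) of resorufin generated by LDH in culture supernatant, 72 h after dosing. Differentiating human progenitor spheres received seven serial compound concentrations alongside a solvent control.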
# [10] = biological target: human Caspase 2 (CASP2), CASP2 (gene 835) (UniProt P42575); test: NVS_ENZ_hCASP2: NovaScreen (NVS) Enzymatic Assay for human Caspase 2 (CASP2) (AID 2283135)
# In short: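 E. coli-expressed enzyme in a cell-free protease assay, fluorescence read 1 h after dosing. Compounds at 25 uM in duplicate, with concentration-response up to 50 uM for hits; loss of signal against DMSO baseline.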
# [11] = biological target: human Adrenergic, Beta 1 Receptor (Adrb1), ADRB1 (gene 153) (UniProt P08588); test: NVS_GPCR_hAdrb1: NovaScreen (NVS) G Protein-Coupled Receptor Assay for human Adrenergic, Beta 1 Receptor (Adrb1) (AID 2283258)
# In short: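 Cell-free radioligand displacement on receptor from human neuroepithelioma cells; 2 h after dosing, filter-based scintillation counting. Primary screen in duplicate at 25 uM, actives retested in concentration series; loss of signal vs DMSO baseline.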
# [12] = biological target: Peroxisome proliferator-activated receptor gamma (Homo sapiens) (UniProt P37231); test: OT_PPARg_PPARgSRC1_1440: Odyssey Thera (OT) 24-hour Protein-Complementation Assay for Peroxisome Proliferator-activated Receptor Gamma/ SRC-1 Co-activator (AID 2283388);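 also: nuclear to cytoplasmic ratio of reconstituted Venus YFP fluorescence in fixed imaged cells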
# In short: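 Protein-fragment complementation between PPARg and coactivator SRC-1 was measured by fluorescence imaging in transiently transfected HEK293T cells after 24 h treatment. Signal was quantified as N/C ratio in the 488 nm channel, with DMSO as negative control.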
# [13] = biological target: human Neurokinin, NK2 Receptor, TACR2 (gene 6865) (UniProt P21452); test: NVS_GPCR_hNK2: NovaScreen (NVS) G Protein-Coupled Receptor Assay for human Neurokinin, NK2 Receptor (AID 2283278);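 also: actives reduce bound radioligand signal relative to DMSO baseline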
# In short: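 Filter-based scintillation counting measured radioligand bound to receptor extracted from CHO cells, 4 hours after compound addition. Chemicals screened first at 25 uM in duplicate, with actives retested in concentration series relative to DMSO.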
# [14] = biological target: human Sirtuin 3 (SIRT3), SIRT3 (gene 23410) (UniProt Q9NTG7); test: NVS_ENZ_hSIRT3: NovaScreen (NVS) Enzymatic Assay for human Sirtuin 3 (SIRT3) (AID 2283222)
# In short: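 Cell-free enzyme assay with recombinant protein and fluorescent substrate, product separated by electrophoretic mobility shift; read 1 hour after dosing. Screened in duplicate at 25 uM, then singleton concentration-response up to 50 uM; loss of signal versus DMSO.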
# [15] = ATG_M_61_XSP2: Attagene TRANS-FACTORIAL Multi-Species (XSP2) HepG2 Assay for M61 Transcription Factor (Internal Marker) (AID 2283835; active = hit-call score of the fitted dose curve at least 0.9, where 1 is the maximum; inactive = score below 0.9;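 also: reporter mRNA of an internal background marker read by RT-PCR and capillary electrophoresis; active means a rise in signal above the DMSO baseline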)
# In short: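 First, HepG2 cells are transfected with reporter units under GAL4-UAS control. Next, chemicals are applied for 24 h. Then total RNA is reverse-transcribed, amplified, fluorescently labelled and sized by capillary electrophoresis, with gain of signal scored against DMSO.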
# [16] = biological target: human AMP-activated Protein Kinase, alpha 1 (AMPKa1), PRKAA1 (gene 5562) (UniProt Q13131); test: NVS_ENZ_hAMPKa1: NovaScreen (NVS) Enzymatic Assay for human AMP-activated Protein Kinase, alpha 1 (AMPKa1) (AID 2283130)
# In short: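 Recombinant human AMPKα1 activity was measured cell-free by fluorescent substrate conversion with electrophoretic mobility-shift separation, 1 h after dosing. Duplicate single-point screening was at 25 uM; actives (≥30% inhibition) were retested in concentration-response up to 50 uM.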
# [17] = biological target: Nucleoli Translocation, AR (gene 367) (UniProt P10275); test: UPITT_HCI_U2OS_AR_TIF2_Nucleoli_Antagonist: University of Pittsburgh U2OS Androgen Receptor-Transcriptional Intermediary Factor 2 (AR-TIF2) Antagonism High Content Imaging Assay for Nucleoli Translocation (AID 2283997)
# In short: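 Measured quantity was AR-RFP fluorescence localized to nucleoli in engineered U2OS cells also bearing TIF2-GFP, acquired on automated high-content imagers. Primary testing used 20 uM compound; actives were confirmed in triplicate wells.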
# [18] = biological target: human Constitutive Androstane Receptor (CAR), NR1I3 (gene 9970) (UniProt Q14994); test: NVS_NR_hCAR_Agonist: NovaScreen (NVS) Nuclear Receptor Binding Assay for human Constitutive Androstane Receptor Agonism (CAR) (AID 2283328)
# In short: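 Cell-free TR-FRET binding readout with extracted human CAR protein, read 1 h after dosing. Gain of signal fitted against DMSO baseline. Single-concentration duplicates at 25 uM, then concentration-response up to 50 uM for actives.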
# [19] = biological target: human Caspase 4 (CASP4), CASP4 (gene 837) (UniProt P49662); test: NVS_ENZ_hCASP4: NovaScreen (NVS) Enzymatic Assay for human Caspase 4 (CASP4) (AID 2283143)
# In short: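 The cell-free assay used E. coli-expressed enzyme with a fluorogenic substrate, read 2 h after dosing. Signal loss was scored versus DMSO. Screening was in duplicate at 25 uM, then singleton concentration-response up to 50 uM.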
# [20] = biological target: human Matrix Metalloproteinase-3 (MMP3), MMP3 (gene 4314) (UniProt P08254); test: NVS_ENZ_hMMP3: NovaScreen (NVS) Enzymatic Assay for human Matrix Metalloproteinase-3 (MMP3) (AID 2283185)
# In short: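 Cell-free recombinant human MMP3 activity, fluorescence intensity read 1 h after dosing. Primary screen duplicate at 25 uM, actives retested in concentration series; loss of signal vs DMSO baseline.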
smiles,measurement,setting,value
ClC(Cl)c1ccccc1,AC50,[1],inconclusive: 0.98 µM
CCC(C)Nc1c([N+](=O)[O-])cc(C(C)(C)C)cc1[N+](=O)[O-] (stereo not given),AC50,[2],inconclusive: 25 µM
same,AC50,[3],inconclusive: 5 µM
CCOCCOC(C)=O,AC50,[4],inconclusive: 25 µM
same,AC50,[5],inconclusive: 202 µM
CCOC(=O)CC(SP(=S)(OC)OC)C(=O)OCC (stereo not given),AC50,[6],inconclusive: 0.572 µM
same,AC50,[7],active: 15.2 µM
same,AC50,[8],active: 34.8 µM
same,AC50,[9],inconclusive: 10 µM
COCCOCCO,outcome,[10],inactive
CCOP(=S)(OCC)SCn1c(=O)oc2cc(Cl)ccc21,AC50,[11],inconclusive: 10.2 µM
same,AC50,[12],inconclusive: 50 µM
CCOP(=S)(S)OCC,AC50,[13],inconclusive: 5.18 µM
CCCCOCN(C(=O)CCl)c1c(CC)cccc1CC,AC50,[14],inconclusive: 0.132 µM
same,AC50,[12],inconclusive: 50 µM
COC(=O)N(OC)c1ccccc1COc1ccn(-c2ccc(Cl)cc2)n1,AC50,[14],inconclusive: 43.4 µM
same,outcome,[15],inactive
ClC1=C(Cl)C2(Cl)C3C(Cl)C(Cl)CC3C1(Cl)C2(Cl)Cl (stereo not given),AC50,[16],inconclusive: 25 µM
Clc1cccc(C(Cl)(Cl)Cl)n1,outcome,[17],inactive
c1cc2ccc3cccc4ccc(c1)c2c34,AC50,[16],inconclusive: 26 µM
O=C(O)C(F)(F)C(F)(F)C(F)(F)C(F)(F)C(F)(F)C(F)(F)C(F)(F)C(F)(F)C(F)(F)C(F)(F)F,AC50,[11],inconclusive: 0.323 µM
same,AC50,[18],inconclusive: 14 µM
c1ccc2c(c1)Nc1ccccc1S2,outcome,[18],inactive
same,outcome,[15],inactive
O=C(NCNC(=O)NC1C(=O)NC(=O)N1CO)NC1C(=O)NC(=O)N1CO (stereo not given),AC50,[17],active: 50 µM
CC(COc1ccc(Oc2ccccc2)cc1)Oc1ccccn1 (stereo not given),AC50,[19],inconclusive: 6.66 µM
CNC(=O)/C=C(\C)OP(=O)(OC)OC,AC50,[20],inconclusive: 25 µM
Nc1ccc(Cl)cc1N,AC50,[19],inconclusive: 8.38 µM
same,AC50,[20],inconclusive: 25 µM
same,AC50,[13],inconclusive: 36.8 µM

# Part of the list above, bar-delimited:
smiles | measurement | setting | value
CCOP(=S)(OCC)SCn1c(=O)oc2cc(Cl)ccc21 | AC50 | [12] | inconclusive: 50 µM
CCOP(=S)(S)OCC | AC50 | [13] | inconclusive: 5.18 µM

# Reference: PubChem BioAssay (EPA / NIEHS)
